Measurements from publication PMC7708490.
Read-outs that look alike come from different tables or passages of the source. No constants are given. Whether binding was seen depends on the method and setting. In cells and extracts the contact can be indirect. Some results given as binding are weak or reduced against the parent protein; the word gives no strength. Each block holds one molecule with its values, some of them ahead of it.

Protein sequences, listed by entry. Tags and fused reporters are not part of them.
UniProt Q14680: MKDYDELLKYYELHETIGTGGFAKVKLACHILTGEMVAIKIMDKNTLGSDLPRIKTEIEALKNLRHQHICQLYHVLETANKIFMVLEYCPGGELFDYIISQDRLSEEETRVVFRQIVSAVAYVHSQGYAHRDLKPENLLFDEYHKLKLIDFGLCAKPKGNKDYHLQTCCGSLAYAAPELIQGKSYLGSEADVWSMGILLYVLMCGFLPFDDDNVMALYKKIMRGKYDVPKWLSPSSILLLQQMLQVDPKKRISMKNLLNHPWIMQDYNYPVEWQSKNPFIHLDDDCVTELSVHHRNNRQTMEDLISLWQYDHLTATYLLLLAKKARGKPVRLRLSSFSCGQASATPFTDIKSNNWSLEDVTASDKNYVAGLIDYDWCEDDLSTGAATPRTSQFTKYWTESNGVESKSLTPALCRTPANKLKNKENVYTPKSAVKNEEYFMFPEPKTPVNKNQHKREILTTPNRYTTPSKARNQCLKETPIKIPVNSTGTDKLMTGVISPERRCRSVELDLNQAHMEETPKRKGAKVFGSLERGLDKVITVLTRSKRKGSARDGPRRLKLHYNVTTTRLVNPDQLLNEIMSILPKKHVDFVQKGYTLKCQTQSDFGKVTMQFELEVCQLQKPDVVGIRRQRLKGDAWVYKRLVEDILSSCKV
UniProt P12004: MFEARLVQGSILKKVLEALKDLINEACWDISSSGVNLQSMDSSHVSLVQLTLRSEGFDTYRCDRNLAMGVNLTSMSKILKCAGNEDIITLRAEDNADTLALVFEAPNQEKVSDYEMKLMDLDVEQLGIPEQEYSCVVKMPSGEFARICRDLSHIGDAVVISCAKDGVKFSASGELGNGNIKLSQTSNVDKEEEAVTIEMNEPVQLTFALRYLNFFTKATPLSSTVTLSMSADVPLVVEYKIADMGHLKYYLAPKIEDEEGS

Tests used:
[1] = molecular target: Maternal embryonic leucine zipper kinase (MELK), Myc-DDK tagged, from pCMV6-MELK-Myc-DDK (UniProt Q14680); experiment: co-IP; 293T cells transfected with pMELK (pCMV6-MELK-Myc-DDK) or pNC for 24 h; lysate mixed with DDK-conjugated agarose beads overnight at 4 °C; pellets washed with TBS five times; Western blot
[2] = molecular target: Maternal embryonic leucine zipper kinase (MELK), Myc-DDK tagged, from pCMV6-MELK-Myc-DDK (UniProt Q14680); experiment: as above; remark: listed apart in the source

binding [1]: binds
Molecule: PCNA (from UniProt P12004 1-261)

binding [2]: binds
B1: Slug (protein, UniProt O43623 1-268)
chain: MPRSFLVKKHFNASKKPNYSELDTHTVIISPYLYESYSMPVIPQPEILSSGAYSPITVWTTAAPFHAQLPNGLSPLSGYSSSLGRVSPPPPSDTSSKDHSGSESPISDEEERLQSKLSDPHAIEAEKFQCNLCNKTYSTFSGLAKHKQLHCDAQSRKSFSCKYCDKEYVSLGALKMHIRTHTLPCVCKICGKAFSRPWLLQGHIRTHTGEKPFSCPHCNRAFADRSNLRAHLQTHSDVKKYQCKNCSKTFSRMSLLHKHEESGCCVAH

binding [2]: binds
B2: SPAG5 (protein, UniProt Q96R06 1-1193)
chain: MWRVKKLSLSLSPSPQTGKPSMRTPLRELTLQPGALTNSGKRSPACSSLTPSLCKLGLQEGSNNSSPVDFVNNKRTDLSSEHFSHSSKWLETCQHESDEQPLDPIPQISSTPKTSEEAVDPLGNYMVKTIVLVPSPLGQQQDMIFEARLDTMAETNSISLNGPLRTDDLVREEVAPCMGDRFSEVAAVSEKPIFQESPSHLLEESPPNPCSEQLHCSKESLSSRTEAVREDLVPSESNAFLPSSVLWLSPSTALAADFRVNHVDPEEEIVEHGAMEEREMRFPTHPKESETEDQALVSSVEDILSTCLTPNLVEMESQEAPGPAVEDVGRILGSDTESWMSPLAWLEKGVNTSVMLENLRQSLSLPSMLRDAAIGTTPFSTCSVGTWFTPSAPQEKSTNTSQTGLVGTKHSTSETEQLLCGRPPDLTALSRHDLEDNLLSSLVILEVLSRQLRDWKSQLAVPHPETQDSSTQTDTSHSGITNKLQHLKESHEMGQALQQARNVMQSWVLISKELISLLHLSLLHLEEDKTTVSQESRRAETLVCCCFDLLKKLRAKLQSLKAEREEARHREEMALRGKDAAEIVLEAFCAHASQRISQLEQDLASMREFRGLLKDAQTQLVGLHAKQEELVQQTVSLTSTLQQDWRSMQLDYTTWTALLSRSRQLTEKLTVKSQQALQERDVAIEEKQEVSRVLEQVSAQLEECKGQTEQLELENSRLATDLRAQLQILANMDSQLKELQSQHTHCAQDLAMKDELLCQLTQSNEEQAAQWQKEEMALKHMQAELQQQQAVLAKEVRDLKETLEFADQENQVAHLELGQVECQLKTTLEVLRERSLQCENLKDTVENLTAKLASTIADNQEQDLEKTRQYSQKLGLLTEQLQSLTLFLQTKLKEKTEQETLLLSTACPPTQEHPLPNDRTFLGSILTAVADEEPESTPVPLLGSDKSAFTRVASMVSLQPAETPGMEESLAEMSIMTTELQSLCSLLQESKEEAIRTLQRKICELQARLQAQEEQHQEVQKAKEADIEKLNQALCLRYKNEKELQEVIQQQNEKILEQIDKSGELISLREEVTHLTRSLRRAETETKVLQEALAGQLDSNCQPMATNWIQEKVWLSQEVDKLRVMFLEMKNEKEKLMIKFQSHRNILEENLRRSDKELEKLDDIVQHIYKTLLSIPEVVRGCKELQGLLEFLS
